# Assay results reported in patent US20080299666A1 (University of South Carolina, priority 2007, published 2008).
# Where no end group is shown, it is not given here.
# Test: general procedure: Fmoc solid-phase peptide synthesis; Fmoc-Ala-Wang resin; HBTU/HOBT
# Conditions: whole synthesis, scale 0.2 mmol
Substance,isolated mass [g],isolated yield [%]
Ac-AAAKAKA,0.0994,74
Ac-AAKAAKA,0.1178,84
Ac-AKAAAKA,0.1103,82
